Reference: article PMC2265524, “ruvA Mutants That Resolve Holliday Junctions but Do Not Reverse Replication Forks” (PLoS Genetics, 2008)
Construct, isoform or probe ends are uncertain for at least one entry. At least one verdict was read from the data and is not stated in words by the source. Protein sequences can lack the tags named with them.

Molecular target: T1, RuvA wild type (Escherichia coli) (UniProt P0A809)
T1 sequence (looked up): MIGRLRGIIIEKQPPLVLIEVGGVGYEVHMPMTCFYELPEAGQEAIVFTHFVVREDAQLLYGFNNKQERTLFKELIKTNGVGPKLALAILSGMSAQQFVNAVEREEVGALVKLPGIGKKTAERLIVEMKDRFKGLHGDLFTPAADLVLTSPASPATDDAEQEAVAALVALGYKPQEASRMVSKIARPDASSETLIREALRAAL
Assay: EMSA
Settings: 3 mM Mg2+, octamer complex; EMSA with ~4-5 ng labelled DNA; 5 mM EDTA (gel 0.5x TBE) or 3 mM MgCl2 without EDTA (gel 0.5x TB + 200 uM MgCl2); recombinant protein; residues 1-203; label: 5' IRD700 on S24 (IT.01); folded or branched DNA

“GACGCTGCCGAATTCTACCAGTGCCTTGCTAGGACATCTTTGCCCACCTGCAGGTTCACCC / TGGGTGAACCTGCAGGTGGGCAAAGATGTCCTAGCAATGTAATCGTCAAGCTTTATGCCGTT / CAACGGCATAAAGCTTGACGATTACATTGCTAGGACATGCTGTCTAGAGGATCCGACTATCGA / ATCGATAGTCGGATCCTCTAGACAGCATGTCCTAGCAAGGCACTGGTAGAATTCGGCAGCGT [X12 (synthetic Holliday junction)]”: binds.
